From patent US5219866A, “Octadecyl-[2-(N-methylpiperidino)-ethyl]-phosphate and a process for its preparation” (Asta Medica AG, priority 1991, dated 1993)
No dose or concentration is given here for some results.

System: human KB tumor cell line
Assay: Cape-Index (WHI in vivo divided by EC90 in vitro)
Conditions: higher = more selective and effective

| SMILES | Cape-Index |
| --- | --- |
| CCCCCCCCCCCCCCCCCCOP(=O)([O-])OCC[n+]1ccccc1 [D 19862] | 0 |
| CCCCCCCCCCCCCCCCCCOP(=O)([O-])OCC[N+]1(CC)CCCCC1 [D 20931] | 13 |
| CCCCCCCCCCCCCCCCCCOP(=O)([O-])OCC[N+]1(C)CCOCC1 [D 20680] | 0 |
| CCCCCCCCCCCCCCCCCCOP(=O)([O-])OCC[N+]1(C)CCCCC1 [D 20133, Octadecyl-[2-(N-methylpiperidino)-ethyl]-phosphate] | 403 |
| CCCCCCCCCCCCCCCCCCOP(=O)([O-])OCC[N+]1(C)CCCCCC1 [D20918] | 0 |
| CCCCCCCCCCCCCCCCCCOP(=O)([O-])OCC[N+](C)(C)C [D 19391] | 36 |
